# Substitutions are numbered along the chain they refer to.
# B1: 47E3, L72A (protein, listed as Rattus norvegicus)
# chain: AFDGTWKVDRNENYEKFMEKMGINVVKRKLGAHDNLKLTITQEGNKETVKESSNFRNIDVVFELGVDFAYSAADGTELTGTWTMEGNKLVGKFKRVDNGKELIAVREISGNELIQTYTYEGVEAKRIFKKE
# modifications: PEPTIDE (1)...(131) wild-type rat intestinal fatty acid binding protein
# B2: 47M, 72A (protein, listed as Rattus norvegicus)
# chain: B1 chain with E47M
# modifications: PEPTIDE (1)...(131) wild-type rat intestinal fatty acid binding protein
# B3: 49G1, 72A (protein, listed as Rattus norvegicus)
# chain: B1 chain with E47F, V49G
# modifications: PEPTIDE (1)...(131) wild-type rat intestinal fatty acid binding protein
# B4: 49L1, 72A (protein, listed as Rattus norvegicus)
# chain: B1 chain with E47F, V49L
# modifications: PEPTIDE (1)...(131) wild-type rat intestinal fatty acid binding protein
# B5: 49I1, 72A (protein, listed as Rattus norvegicus)
# chain: B1 chain with E47F, V49I
# modifications: PEPTIDE (1)...(131) wild-type rat intestinal fatty acid binding protein
# B6: 47I2, L72A (protein, listed as Rattus norvegicus)
# chain: B1 chain with E47I
# modifications: PEPTIDE (1)...(131) wild-type rat intestinal fatty acid binding protein
# B7: 47R3, L72A (protein, listed as Rattus norvegicus)
# chain: B1 chain with E47R
# modifications: PEPTIDE (1)...(131) wild-type rat intestinal fatty acid binding protein
# B8: 47H1, L72A (protein, listed as Rattus norvegicus)
# chain: B1 chain with E47H
# modifications: PEPTIDE (1)...(131) wild-type rat intestinal fatty acid binding protein
# B9: 49N1, 72A (protein, listed as Rattus norvegicus)
# chain: B1 chain with E47F, V49N
# modifications: PEPTIDE (1)...(131) wild-type rat intestinal fatty acid binding protein
# B10: 49A1, 72A (protein, listed as Rattus norvegicus)
# chain: B1 chain with E47F, V49A
# modifications: PEPTIDE (1)...(131) wild-type rat intestinal fatty acid binding protein
# B11: 47S1, L72A (protein, listed as Rattus norvegicus)
# chain: B1 chain with E47S
# modifications: PEPTIDE (1)...(131) wild-type rat intestinal fatty acid binding protein
# B12: 49C1, 72A (protein, listed as Rattus norvegicus)
# chain: B1 chain with E47F, V49C
# modifications: PEPTIDE (1)...(131) wild-type rat intestinal fatty acid binding protein
# B13: 49F1, 72A (protein, listed as Rattus norvegicus)
# chain: B1 chain with E47F, V49F
# modifications: PEPTIDE (1)...(131) wild-type rat intestinal fatty acid binding protein
# B14: 47Y2, L72A (protein, listed as Rattus norvegicus)
# chain: B1 chain with E47Y
# modifications: PEPTIDE (1)...(131) wild-type rat intestinal fatty acid binding protein
# B15: 49M1, 72A (protein, listed as Rattus norvegicus)
# chain: B1 chain with E47F, V49M
# modifications: PEPTIDE (1)...(131) wild-type rat intestinal fatty acid binding protein
# B16: 49D1, 72A (protein, listed as Rattus norvegicus)
# chain: B1 chain with E47F, V49D
# modifications: PEPTIDE (1)...(131) wild-type rat intestinal fatty acid binding protein
# B17: 47T1, L72A (protein, listed as Rattus norvegicus)
# chain: B1 chain with E47T
# modifications: PEPTIDE (1)...(131) wild-type rat intestinal fatty acid binding protein
# B18: 47V3, L72A (protein, listed as Rattus norvegicus)
# chain: B1 chain with E47V
# modifications: PEPTIDE (1)...(131) wild-type rat intestinal fatty acid binding protein
# B19: 49K1, 72A (protein, listed as Rattus norvegicus)
# chain: B1 chain with E47F, V49K
# modifications: PEPTIDE (1)...(131) wild-type rat intestinal fatty acid binding protein
# B20: 49H1, 72A (protein, listed as Rattus norvegicus)
# chain: B1 chain with E47F, V49H
# modifications: PEPTIDE (1)...(131) wild-type rat intestinal fatty acid binding protein
# B21: 47L2, L72A (protein, listed as Rattus norvegicus)
# chain: B1 chain with E47L
# modifications: PEPTIDE (1)...(131) wild-type rat intestinal fatty acid binding protein
# B22: 47P1, L72A (protein, listed as Rattus norvegicus)
# chain: B1 chain with E47P
# modifications: PEPTIDE (1)...(131) wild-type rat intestinal fatty acid binding protein
# B23: 102S, 72A (protein, listed as Rattus norvegicus)
# chain: B1 chain with E47F, L102S
# modifications: PEPTIDE (1)...(131) wild-type rat intestinal fatty acid binding protein
# B24: 102T, 72A (protein, listed as Rattus norvegicus)
# chain: B1 chain with E47F, L102T
# modifications: PEPTIDE (1)...(131) wild-type rat intestinal fatty acid binding protein
# B25: 102R, 72A (protein, listed as Rattus norvegicus)
# chain: B1 chain with E47F, L102R
# modifications: PEPTIDE (1)...(131) wild-type rat intestinal fatty acid binding protein
# Assay: Baseline fluorescence ratio Ro of probe in absence of analyte
# Settings: average baseline fluorescence ratio Ro of the clone probe; substitutions with respect to SEQ ID NO: 2
row,Molecule,AvgOfRo
1,B1,0.18
2,B2,0.23
3,B3,0.43
4,B4,0.37
5,B5,0.36
6,B6,0.19
7,B7,0.33
8,B8,0.22
9,B9,0.35
10,B10,0.45
11,B11,0.31
12,B12,0.29
13,B13,0.39
14,B14,0.19
15,B15,0.35
16,B16,0.23
17,B17,0.24
18,B18,0.19
19,B19,0.43
20,B20,0.44
21,B21,0.22
22,B22,0.36

# Same assay, conditions: baseline fluorescence ratio of probe, no fatty acid
Molecule,Ro,AvgOfRo
B2,0.225,
B23,,0.24
B24,,0.14
B25,,0.33
